± gives the standard deviation. The entries are a selection whose mix differs from that of the whole data set. Many entries were measured with a wide error. The list shows a part of the results.
Tests used:
[1] = test system: MILI (PIWIL2) piRISC loaded with L1MC piRNA (26 nt); experiment: pre-steady-state target cleavage rate (min^-1); higher = faster piRNA-guided slicing of the target; conditions: guide: L1MC piRNA 5'p-UAACUAAAUACUAUGCAAGCUGUAGG;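 also: 1 nM active piRISC with 0.1 nM target library at 33 °C single turnover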
Outline: (§1)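 In HEPES–potassium acetate buffer at 33 °C, […] transcribed, DNA-blocked target RNA library was mixed with 1 nM active affinity-purified piRISC carrying one synthetic guide, with or without 500 nM GTSF1 partner protein, for 0–8 or 0–960 min. Uncleaved targets were sequenced and normalised to depth and to weakly complementary targets; three trials were pooled and k3 was capped at 0.0001 min^-1. The pre-steady-state cleavage rate followed from a burst-and-steady-state fit.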

[2] = test system: EfPiwi piRISC loaded with L1MC piRNA (26 nt); experiment: pre-steady-state target cleavage rate (min^-1); guide: L1MC piRNA 5'p-UAACUAAAUACUAUGCAAGCUGUAGG; MIWI and MILI are mouse PIWI proteins and EfPiwi is from a freshwater sponge; tags in brackets are library labels; higher = faster piRNA-guided slicing of the target
Outline: as §1

[3] = auxiliary factor: none (no GTSF1)
[4] = auxiliary factor: 500 nM Ephydatia muelleri Gtsf1
[5] = auxiliary factor: none (no Gtsf1)
[6] = auxiliary factor: 500 nM mouse GTSF1

Sequence | pre-steady-state target cleavage rate [1, 3] | pre-steady-state target cleavage rate [2, 4] | pre-steady-state target cleavage rate [2, 5] | pre-steady-state target cleavage rate [1, 6]
UCCUGGAUGUGCUUGCAUUGUAUUUAGAUA | 0.00159 ± 0.005 | 0.00278 ± 0.0033 | 0.000129 ± 0.088 | 
UCCUCCUACAGCUUGCAUAGUAUUCUAGUUA |  | 0.00344 ± 0.0019 | 0.000314 ± 0.016 | 0.316 ± 0.039
UCCUGCUACAGCUAGCAUAGAAUUUAGUUA | 0.00164 ± 0.0046 | 0.00327 ± 0.0022 | 0.000941 ± 0.0061 | 
UCCUGCUACAGCUUGCAUACUAUUUAGAUA | 0.00128 ± 0.0045 | 0.00382 ± 0.002 | 0.000362 ± 0.015 | 
UCCUGGAUGAGCUUGCAAAGUAUUUAGAUA | 0.00124 ± 0.0055 | 0.00201 ± 0.0032 | 0.000431 ± 0.021 | 
UCCUGCUACUGCUUCCAUAGUAUUUAGUUA | 0.00141 ± 0.0047 | 0.00205 ± 0.0016 | 0.000308 ± 0.014 | 
UCCUGGAUGUGCUUGCAAAGUAUUUAGAAA | 0.00148 ± 0.0037 | 0.000889 ± 0.0038 | 0.000675 ± 0.013 | 
UCCUGGAUGUCGAUGCAUAGUAUUAAGAUA | 0.00035 ± 0.013 | 0.000836 ± 0.0095 | 0.000329 ± 0.019 | 
UCCUGCUACAGCUUGCAUAGAAUUUAGUAA | 0.00137 ± 0.0052 | 0.00358 ± 0.0016 | 0.000353 ± 0.015 | 
UCCUGCUACAGCUAGCAUAGUAUUUUGUUA | 0.00312 ± 0.0039 | 0.0057 ± 0.0021 | 0.000211 ± 0.032 | 
UCCUGGAUGUCGAUGCAUAGUAUUCAGUUA | 0.0013 ± 0.0048 | 0.00199 ± 0.0056 | < 0.0001 | 
UCCUGGUACAGCUUGCAUAGUAUUAACUUA | 0.0031 ± 0.0032 | 0.0032 ± 0.0024 | 0.000258 ± 0.042 | 
UCCUGCUACAGCUUGCAUAGUAUUUUCUUA | 0.00144 ± 0.0058 | 0.00359 ± 0.002 | 0.000791 ± 0.011 | 
UCCUGGAUGAGCUUGCAUAGUAUUUACUUA | 0.00173 ± 0.0033 | 0.00272 ± 0.0032 | 0.000473 ± 0.014 | 
UCCUGGUACUGCUUGCAUAGAAUUUAGUUA | 0.00194 ± 0.0065 | 0.0019 ± 0.0026 | 0.000299 ± 0.025 | 
UCCUGGAACAGCUUGGCAUAGUAUUUAGUUA |  | 0.0094 ± 0.0031 | 0.00052 ± 0.018 | 0.48 ± 0.097
UCCUGGAUGAGCUUGCAAUGUAUUUACAAA | 0.000914 ± 0.0095 | 0.000282 ± 0.015 | 0.000632 ± 0.014 | 
UCCUGCUACAGCUUGCAUAGUAUUUAGUGUA | 0.00266 ± 0.0042 | 0.00597 ± 0.0021 | 0.000521 ± 0.009 | 
UCCUCCUACUGCUUGCAUAGUAUUUAGAAA | 0.00119 ± 0.0043 | 0.00462 ± 0.0021 | 0.000383 ± 0.0094 | 
UCCUGGUACACCUUGCAUAGUAAUUAGUUA |  | 0.00464 ± 0.0027 | 0.000125 ± 0.064 | 0.491 ± 0.14
UCCUCCAACAGCUUGCAUAGUAUUUACAAA | 0.00193 ± 0.0036 | 0.00355 ± 0.0024 | 0.000498 ± 0.015 | 
UCCUCCUACAGCUUGCAAAGUAUUUAGAUA | 0.00117 ± 0.0042 | 0.00419 ± 0.0024 | 0.000433 ± 0.01 | 
UCCUGGAUGAGCUUGCAUAGAAUAUAGUUA | 0.00118 ± 0.0055 | 0.00186 ± 0.0051 | 0.000137 ± 0.027 | 
UCCUGGAUGAGCUUGCAUAGAAUUUUGUUA | 0.00114 ± 0.0066 | 0.00127 ± 0.0031 | 0.000988 ± 0.0099 | 
UCCUGGAUGUGCUUGCAUAGAAUUUACUUA | 0.00154 ± 0.0043 | 0.000255 ± 0.026 | 0.000306 ± 0.024 | 
UCCUGGAUGUGCUUGCAUAGUAUUUCAGUUA | 0.0015 ± 0.0064 | 0.000746 ± 0.0051 | 0.00035 ± 0.027 | 

A second format for part of the listing above.
Sequence	pre-steady-state target cleavage rate [1, 3]	pre-steady-state target cleavage rate [2, 4]	pre-steady-state target cleavage rate [2, 5]	pre-steady-state target cleavage rate [1, 6]
UCCUGCUACAGCUAGCAUAGUAUUUUGUUA	0.00312 ± 0.0039	0.0057 ± 0.0021	0.000211 ± 0.032	
UCCUGGAUGUCGAUGCAUAGUAUUCAGUUA	0.0013 ± 0.0048	0.00199 ± 0.0056	< 0.0001	
UCCUGGUACAGCUUGCAUAGUAUUAACUUA	0.0031 ± 0.0032	0.0032 ± 0.0024	0.000258 ± 0.042	
UCCUGCUACAGCUUGCAUAGUAUUUUCUUA	0.00144 ± 0.0058	0.00359 ± 0.002	0.000791 ± 0.011	
UCCUGGAUGAGCUUGCAUAGUAUUUACUUA	0.00173 ± 0.0033	0.00272 ± 0.0032	0.000473 ± 0.014	
UCCUGGUACUGCUUGCAUAGAAUUUAGUUA	0.00194 ± 0.0065	0.0019 ± 0.0026	0.000299 ± 0.025	
UCCUGGAACAGCUUGGCAUAGUAUUUAGUUA		0.0094 ± 0.0031	0.00052 ± 0.018	0.48 ± 0.097
UCCUGGAUGAGCUUGCAAUGUAUUUACAAA	0.000914 ± 0.0095	0.000282 ± 0.015	0.000632 ± 0.014	
UCCUGCUACAGCUUGCAUAGUAUUUAGUGUA	0.00266 ± 0.0042	0.00597 ± 0.0021	0.000521 ± 0.009	
UCCUCCUACUGCUUGCAUAGUAUUUAGAAA	0.00119 ± 0.0043	0.00462 ± 0.0021	0.000383 ± 0.0094	
UCCUGGUACACCUUGCAUAGUAAUUAGUUA		0.00464 ± 0.0027	0.000125 ± 0.064	0.491 ± 0.14
UCCUCCAACAGCUUGCAUAGUAUUUACAAA	0.00193 ± 0.0036	0.00355 ± 0.0024	0.000498 ± 0.015	
UCCUCCUACAGCUUGCAAAGUAUUUAGAUA	0.00117 ± 0.0042	0.00419 ± 0.0024	0.000433 ± 0.01	
UCCUGGAUGAGCUUGCAUAGAAUAUAGUUA	0.00118 ± 0.0055	0.00186 ± 0.0051	0.000137 ± 0.027	
UCCUGGAUGAGCUUGCAUAGAAUUUUGUUA	0.00114 ± 0.0066	0.00127 ± 0.0031	0.000988 ± 0.0099	
UCCUGGAUGUGCUUGCAUAGAAUUUACUUA	0.00154 ± 0.0043	0.000255 ± 0.026	0.000306 ± 0.024	

(listing goes on)

Sequence | pre-steady-state target cleavage rate [1, 3] | pre-steady-state target cleavage rate [2, 4] | pre-steady-state target cleavage rate [2, 5] | pre-steady-state target cleavage rate [1, 6]
UCCUGCUAGAGCUUGCAUACUAUUUAGUUA | 0.00202 ± 0.0045 | 0.00515 ± 0.0018 | 0.000777 ± 0.0074 | 
UCCUGGAUGUGCUUGCAUAGUAUUAUGUUA | 0.0017 ± 0.0051 | 0.000819 ± 0.0062 | 0.00054 ± 0.017 | 
UCCUGCUACUGCUUGCAUAGUAUUUACUUA | 0.00252 ± 0.0032 | 0.00156 ± 0.0024 | 0.00011 ± 0.056 | 
UCCUGGAUGUCGAACCAUCAGUAUUUAGUUA | < 0.0001 | 0.000371 ± 0.018 | 0.000227 ± 0.026 | 
UCCUCCUACAGCUUGCAUACUAUUUAGAAA | 0.0012 ± 0.0043 | 0.00366 ± 0.0019 | 0.000397 ± 0.016 | 
UCCUGGAUGAGCUUGCAUAGUAUAUUGUUA | 0.00177 ± 0.0047 | 0.00265 ± 0.0033 | 0.000423 ± 0.021 | 
UCCUGGAUGUCGUUGCAUAGUAUUUCGUUA | 0.00135 ± 0.0059 | 0.00062 ± 0.012 | 0.000174 ± 0.041 | 
UCCUGGUACAGCUUGCAUAGUUUUUAGAUA | 0.00325 ± 0.0039 | 0.0023 ± 0.0041 | 0.000669 ± 0.019 | 
UCCUGGAACACCUUGCAUACUAUUUAGUUA | 0.000705 ± 0.0086 | 0.00273 ± 0.002 | 0.000442 ± 0.015 | 
UCCUGGAUGAGCUUGCAUAGUAUUAAGUAA | 0.00166 ± 0.0054 | 0.00133 ± 0.0035 | 0.000451 ± 0.017 | 
UCCUCGUACAGCUUGCAUAGAAUUUAGUUA | 0.00192 ± 0.0025 | 0.00771 ± 0.0018 | 0.00853 ± 0.0037 | 
UCCUGGAACAGCUUGCAUAGUAUAAUCAAA | 0.00145 ± 0.0046 | 0.00171 ± 0.0031 | 0.000487 ± 0.017 | 
UCCUGGAUCAGCUUGCAUAGUAUUGAGUUA | 0.00267 ± 0.0035 | 0.00662 ± 0.0024 | 0.00183 ± 0.006 | 
UCCUGGAUGUCGAACGUAUCUAUUUAGUUUA | 0.000341 ± 0.011 | 0.000182 ± 0.021 | 0.000279 ± 0.017 | 
UCCUGGAUCACCUUGCAUAGUAUUUACAAA | 0.00242 ± 0.0033 | 0.000341 ± 0.017 | 0.000109 ± 0.063 | 
UCCUCCUACAGCUUGCUUAGAAUUUAGUUA | 0.00155 ± 0.0032 | 0.00419 ± 0.002 | 0.000913 ± 0.0053 | 
UCCUGGUACAGCUUGCAUAGUAAAAUCAAA | 0.00116 ± 0.0055 | 0.00181 ± 0.0037 | 0.000347 ± 0.026 | 
UCCUGGUACAGCUUGCUUAGUAUUUACUUA | 0.00257 ± 0.003 | 0.00185 ± 0.0042 | 0.000335 ± 0.021 | 
UCCUGCUACAGCUUGCAUAGAAUUUAGUUA | 0.00225 ± 0.0031 | 0.00582 ± 0.0022 | 0.00101 ± 0.0064 | 
UCCUGGAUGUCCUUGCAUAGUAUUUUGUUA | 0.00228 ± 0.0041 | 0.00191 ± 0.0029 | 0.000683 ± 0.011 | 
UCCUGGUACAGCUUGCAUAGUAUAUAGAUA | 0.00221 ± 0.0036 | 0.0017 ± 0.003 | 0.0003 ± 0.032 | 
UCCUCCAUGAGCUUGCAUAGUAUUUACAAA | 0.000912 ± 0.0064 | 0.00312 ± 0.0024 | 0.000251 ± 0.015 | 
UCCUGGAUGUCGUUGCAUAGUAUAUAGUAA | 0.00213 ± 0.0034 | 0.000321 ± 0.012 | 0.000116 ± 0.072 | 
UCCUGGAUCAGCUUGCAAAGUAUUUACAAA | 0.00112 ± 0.0066 | 0.00563 ± 0.0037 | 0.000455 ± 0.017 | 
UCCUGGAUCAGCUUGCAUAGUAUAAUGUAA | 0.00148 ± 0.004 | 0.00114 ± 0.0039 | 0.00011 ± 0.038 | 

From the supplement of paper PMC10338343
